Results published in PMC11554683.

Amino acid sequences for entries named in this document (tags omitted). Residues count along the entry.
UniProt P63218: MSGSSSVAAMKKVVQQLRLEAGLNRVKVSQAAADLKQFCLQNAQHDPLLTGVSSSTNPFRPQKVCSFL
UniProt Q92542, residues 34-709: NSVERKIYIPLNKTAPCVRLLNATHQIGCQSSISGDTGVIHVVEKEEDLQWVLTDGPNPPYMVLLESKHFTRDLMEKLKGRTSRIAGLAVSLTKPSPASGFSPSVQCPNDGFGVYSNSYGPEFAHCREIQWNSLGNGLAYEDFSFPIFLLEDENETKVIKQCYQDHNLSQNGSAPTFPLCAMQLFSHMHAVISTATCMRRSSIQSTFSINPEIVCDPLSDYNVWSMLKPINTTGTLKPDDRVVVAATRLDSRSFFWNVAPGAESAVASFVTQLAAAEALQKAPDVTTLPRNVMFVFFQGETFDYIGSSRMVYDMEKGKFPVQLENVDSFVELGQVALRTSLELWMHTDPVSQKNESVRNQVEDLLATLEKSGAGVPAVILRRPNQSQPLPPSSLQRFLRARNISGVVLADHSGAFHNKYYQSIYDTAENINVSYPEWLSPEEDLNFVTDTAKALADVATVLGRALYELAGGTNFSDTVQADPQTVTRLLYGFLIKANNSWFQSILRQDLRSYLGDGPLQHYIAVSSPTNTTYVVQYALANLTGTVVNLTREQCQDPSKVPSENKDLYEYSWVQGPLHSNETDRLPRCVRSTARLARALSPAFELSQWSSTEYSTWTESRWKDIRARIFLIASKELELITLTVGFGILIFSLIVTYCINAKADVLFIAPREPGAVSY
UniProt P05067, residues 18-770: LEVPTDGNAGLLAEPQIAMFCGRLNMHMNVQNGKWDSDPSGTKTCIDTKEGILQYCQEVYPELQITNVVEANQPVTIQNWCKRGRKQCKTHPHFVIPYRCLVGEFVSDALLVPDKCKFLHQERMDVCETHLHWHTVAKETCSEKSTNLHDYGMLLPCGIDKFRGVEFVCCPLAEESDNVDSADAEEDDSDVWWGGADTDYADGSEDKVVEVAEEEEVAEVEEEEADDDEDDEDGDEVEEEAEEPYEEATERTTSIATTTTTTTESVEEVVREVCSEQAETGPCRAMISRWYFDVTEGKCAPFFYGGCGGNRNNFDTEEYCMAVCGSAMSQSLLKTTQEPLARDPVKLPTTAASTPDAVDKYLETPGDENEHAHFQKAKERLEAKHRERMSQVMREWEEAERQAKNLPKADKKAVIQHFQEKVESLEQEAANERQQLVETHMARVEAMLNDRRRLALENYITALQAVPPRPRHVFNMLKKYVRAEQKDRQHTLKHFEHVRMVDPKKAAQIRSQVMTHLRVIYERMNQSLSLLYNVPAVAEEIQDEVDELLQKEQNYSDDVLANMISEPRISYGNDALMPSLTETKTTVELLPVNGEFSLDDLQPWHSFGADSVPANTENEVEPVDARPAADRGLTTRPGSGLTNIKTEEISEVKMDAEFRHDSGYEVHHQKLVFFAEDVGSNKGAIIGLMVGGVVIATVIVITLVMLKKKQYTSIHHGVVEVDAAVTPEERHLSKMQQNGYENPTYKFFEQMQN
UniProt P25025: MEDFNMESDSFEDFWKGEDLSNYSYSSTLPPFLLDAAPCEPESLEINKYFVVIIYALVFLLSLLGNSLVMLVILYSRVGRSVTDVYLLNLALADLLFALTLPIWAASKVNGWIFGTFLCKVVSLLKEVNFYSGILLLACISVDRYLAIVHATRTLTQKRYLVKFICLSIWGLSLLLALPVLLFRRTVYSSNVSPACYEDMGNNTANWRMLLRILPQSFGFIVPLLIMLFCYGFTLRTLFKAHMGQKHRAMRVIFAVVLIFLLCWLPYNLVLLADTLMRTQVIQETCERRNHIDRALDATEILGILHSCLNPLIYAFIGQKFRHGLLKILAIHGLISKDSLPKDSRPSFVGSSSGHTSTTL
UniProt P32121: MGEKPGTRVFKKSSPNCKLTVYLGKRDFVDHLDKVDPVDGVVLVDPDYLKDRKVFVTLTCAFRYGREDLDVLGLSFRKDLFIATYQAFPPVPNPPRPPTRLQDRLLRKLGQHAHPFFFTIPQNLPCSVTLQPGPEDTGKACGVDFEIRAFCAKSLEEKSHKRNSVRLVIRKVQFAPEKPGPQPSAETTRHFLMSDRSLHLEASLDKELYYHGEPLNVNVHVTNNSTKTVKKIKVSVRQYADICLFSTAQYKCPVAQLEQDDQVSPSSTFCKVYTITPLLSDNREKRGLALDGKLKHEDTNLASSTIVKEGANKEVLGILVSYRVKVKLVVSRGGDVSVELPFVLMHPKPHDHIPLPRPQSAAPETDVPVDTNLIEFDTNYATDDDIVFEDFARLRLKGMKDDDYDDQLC
UniProt P49407: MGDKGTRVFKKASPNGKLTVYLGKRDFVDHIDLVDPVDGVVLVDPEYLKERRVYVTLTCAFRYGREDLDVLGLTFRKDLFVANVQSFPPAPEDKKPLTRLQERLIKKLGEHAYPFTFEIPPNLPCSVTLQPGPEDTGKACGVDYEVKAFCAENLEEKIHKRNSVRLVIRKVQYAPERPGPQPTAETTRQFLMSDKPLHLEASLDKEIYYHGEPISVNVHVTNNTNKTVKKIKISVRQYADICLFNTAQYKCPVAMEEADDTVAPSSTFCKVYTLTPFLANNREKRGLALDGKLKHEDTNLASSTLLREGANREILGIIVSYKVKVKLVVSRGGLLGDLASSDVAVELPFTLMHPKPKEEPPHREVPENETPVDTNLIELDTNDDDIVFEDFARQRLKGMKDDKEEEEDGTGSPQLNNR
UniProt P63096: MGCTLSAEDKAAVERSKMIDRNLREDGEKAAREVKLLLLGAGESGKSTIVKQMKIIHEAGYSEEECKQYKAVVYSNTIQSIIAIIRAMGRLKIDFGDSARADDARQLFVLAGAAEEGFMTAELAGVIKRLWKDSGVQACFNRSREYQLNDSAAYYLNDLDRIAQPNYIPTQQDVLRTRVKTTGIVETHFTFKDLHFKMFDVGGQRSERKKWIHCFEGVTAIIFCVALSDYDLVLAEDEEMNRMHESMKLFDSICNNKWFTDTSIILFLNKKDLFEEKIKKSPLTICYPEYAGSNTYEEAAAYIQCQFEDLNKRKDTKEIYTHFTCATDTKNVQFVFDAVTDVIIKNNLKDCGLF
UniProt P43250: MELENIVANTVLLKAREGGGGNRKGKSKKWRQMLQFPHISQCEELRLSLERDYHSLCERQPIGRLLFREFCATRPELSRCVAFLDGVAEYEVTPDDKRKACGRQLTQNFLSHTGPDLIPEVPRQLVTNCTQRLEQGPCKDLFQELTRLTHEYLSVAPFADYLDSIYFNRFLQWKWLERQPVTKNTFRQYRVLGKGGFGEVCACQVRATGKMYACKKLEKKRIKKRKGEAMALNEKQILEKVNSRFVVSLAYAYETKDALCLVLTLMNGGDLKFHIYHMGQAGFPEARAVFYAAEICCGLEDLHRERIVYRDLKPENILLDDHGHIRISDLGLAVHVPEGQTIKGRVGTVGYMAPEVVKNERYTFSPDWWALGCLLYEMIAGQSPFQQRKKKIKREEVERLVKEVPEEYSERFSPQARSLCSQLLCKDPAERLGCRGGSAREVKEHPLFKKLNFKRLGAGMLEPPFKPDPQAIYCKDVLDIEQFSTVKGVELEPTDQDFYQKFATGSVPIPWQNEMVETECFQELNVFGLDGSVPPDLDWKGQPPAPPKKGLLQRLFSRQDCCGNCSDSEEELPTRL

Each substance was assayed against human recombinant protein GNG5-FLAG (human) (UniProt P63218) (assay: affinity purification with mass spectrometry; membrane proteins of 293T cells stably expressing GNG5-FLAG; anti-FLAG antibody, Protein A/G PLUS-Agarose, 4 °C; co-IP buffer 20 mM HEPES pH 7.5, 50 mM KCl, 2 mM EGTA, 0.25% CHAPSO; SDS-PAGE, in-gel digestion, LC-MS/MS).

binding, binds:
NCSTN (from UniProt Q92542 34-709), amyloid precursor protein (APP) (from UniProt P05067 18-770), C-X-C chemokine receptor type 2 (CXCR2) (from UniProt P25025 1-360), β-arrestin ARRB2 (from UniProt P32121 1-409), β-arrestin ARRB1 (from UniProt P49407 1-418), PS2 (from UniProt P49810 1-448), GNAI1 (from UniProt P63096 1-354), G-protein-coupled receptor kinase 6 (GRK6) (from UniProt P43250 1-576)

Results are given in words; binding and its absence hold for the method and conditions named. In cells and extracts the contact can be indirect. A yes stands for co-enrichment or nearness to the bait. Other partners may have been found.
